# Reference: ChEMBL document CHEMBL4303122, “Identification of potential treatments for COVID-19 through artificial intelligence-enabled phenomic analysis of human cells infected with SARS-CoV-2” (2020)
# In all, about 1,600 compounds were measured (“Hit score”: median about 0.13, highest 2% from about 0.46 on). The list shows a part of the results.
# System: SARS-CoV-2
# Test: Antiviral activity against SARS-CoV-2 (USA-WA1/2020 strain) measured by imaging in HRCE cells at MOI 0.4 after 96 hrs (reported as hit score from 0-1 for on-disease vs off-disease activity: scores >0.6 considered hits)
# Format: functional, Homo sapiens
row,SMILES,Hit score
1,CC(C)(C)NC[C@H](O)COc1cccc2c1CCCC2=O [LEVOBUNOLOL],0.1851
2,C[N+](C)(C)CCOC(N)=O [CARBAMOYLCHOLINE],0.06455
3,O=C(NC(Cc1cc(=O)[nH]c2ccccc12)C(=O)O)c1ccc(Cl)cc1 (stereo unspecified) [REBAMIPIDE],0.1332
4,C=CCN1CC[C@]23CCCC[C@H]2[C@H]1Cc1ccc(O)cc13 [LEVALLORPHAN],0.1904
5,OCC(CO)N[C@H]1C[C@](O)(CO)[C@@H](O)[C@H](O)[C@H]1O [VOGLIBOSE],0.1287
6,CCOC(CN1CCN(CC(C)C(=O)c2ccccc2)CC1)c1ccccc1 (stereo unspecified) [EPRAZINONE],0.2949
7,OC(CCN1CCCCC1)(c1ccccc1)c1ccccc1 [PRIDINOL],0.1349
8,Cc1c(Cl)c(C)[n+]([O-])c(Cl)c1-c1noc(-c2cc(O)c(O)c([N+](=O)[O-])c2)n1 [OPICAPONE],-0.07412
9,CCCCC(=O)N(Cc1ccc(-c2ccccc2-c2nnn[nH]2)cc1)[C@H](C(=O)O)C(C)C,0.04941
10,CCN(CC)CCNC(=O)c1cc(Br)c(N)cc1OC [BROMOPRIDE],0.05478
11,Cc1ccc(Nc2nccc(N(C)c3ccc4c(C)n(C)nc4c3)n2)cc1S(N)(=O)=O [PAZOPANIB],0.1082
12,C[C@@H](O)[C@H]1C(=O)N2C(C(=O)OCOC(=O)C(C)(C)C)=C(SC3CN(C4=NCCS4)C3)[C@H](C)[C@H]12 [TEBIPENEM PIVOXIL],0.09408
13,CSCC[C@H](NC(=O)[C@H](Cc1c[nH]c2ccccc12)NC(=O)CCNC(=O)OC(C)(C)C)C(=O)N[C@@H](CC(=O)O)C(=O)N[C@@H](Cc1ccccc1)C(N)=O [PENTAGASTRIN],0.1737
14,Cc1c(C(=O)Nc2ccc(N3C[C@@H](C)O[C@@H](C)C3)nc2)cccc1-c1ccc(OC(F)(F)F)cc1 [SONIDEGIB],0.05683
15,Nc1nc(/C(=C/CC(=O)O)C(=O)N[C@@H]2C(=O)N3C(C(=O)O)=CCS[C@H]23)cs1 [CEFTIBUTEN],0.05059
16,CCOc1ccc(Cc2nccc3cc(OCC)c(OCC)cc23)cc1OCC [ETHAVERINE],0.02741
17,CN(C(=O)/C=C/c1ccoc1)[C@@H]1CC[C@@]2(O)[C@H]3Cc4ccc(O)c5c4[C@@]2(CCN3CC2CC2)[C@H]1O5 [NALFURAFINE],0.1349
18,O=C(Nc1ccc([N+](=O)[O-])cc1Cl)c1cc(Cl)ccc1O [NICLOSAMIDE],0.443
19,CC(C)c1nc(CN(C)C(=O)N[C@@H](CCN2CCOCC2)C(=O)N[C@H](CC[C@H](Cc2ccccc2)NC(=O)OCc2cncs2)Cc2ccccc2)cs1 [COBICISTAT],0.1186
20,C#C[C@]1(O)CC[C@H]2[C@@H]3CCC4=CCCC[C@@H]4[C@H]3C(=C)C[C@@]21CC [DESOGESTREL],-0.03558
21,CC12CC3CC(C)(C1)CC(N)(C3)C2 [MEMANTINE],0.1136
22,CN1C(C(=O)Nc2ccccn2)=C(O)c2sc(Cl)cc2S1(=O)=O [LORNOXICAM],0.1815
23,Nc1ccn([C@H]2CO[C@@H](CO)S2)c(=O)n1 [APRICITABINE],0.02649
24,O=c1cc[nH]c(=O)[nH]1 [URACIL],0.2028

row,SMILES,Hit score
1,O=C(O)CCCN1CCC(O[C@@H](c2ccc(Cl)cc2)c2ccccn2)CC1 [BEPOTASTINE],0.1376
2,C[C@@H](O)[C@H]1C(=O)N2C(C(=O)O)=C([C@H]3CCCO3)S[C@H]12 [FAROPENEM],0.1823
3,COc1ccc(-c2ccc3cc(C(=O)O)ccc3c2)cc1C12CC3CC(CC(C3)C1)C2,0.1742
4,CCCCc1oc2ccccc2c1C(=O)c1cc(I)c(OCCN(CC)CC)c(I)c1 [AMIODARONE],0.1232
5,CC(C)n1nccc1-c1ncccc1COc1cccc(O)c1C=O [VOXELOTOR],0.1638
6,O=S(=O)([O-])CCS.[Na+] [MESNA],0.149
7,CN1C(=O)N(C)C2C1N(C)C(=O)N2C (stereo unspecified) [MEBICAR],0.1618
8,N#CC1(c2ccc(NC(=O)c3cccnc3NCc3ccncc3)cc2)CCCC1 [RIVOCERANIB],0.08782
9,OC[C@@H](O)CN1CCN(c2ccccc2)CC1 [LEVODROPROPIZINE],0.1177
10,COc1ccc(CCO[C@@H]2CCCC[C@H]2N2CC[C@@H](O)C2)cc1OC [VERNAKALANT],0.04877
11,Cc1cccc(Cc2c[nH]cn2)c1C [DETOMIDINE],0.2278
12,COc1ccc(CNc2nc(N3CCC[C@H]3CO)ncc2C(=O)NCc2ncccn2)cc1Cl,0.0319
13,CC(C)(C)CC(C)(C)c1ccc(OCCOCC[N+](C)(C)Cc2ccccc2)cc1 [BENZETHONIUM],0.03086
14,Cn1nnc2c(C(N)=O)ncn2c1=O [TEMOZOLOMIDE],0.2002
15,CC(C)C(=O)c1c(C(C)C)nn2ccccc12 [IBUDILAST],0.1885
16,CC(CN(C)C)CN1c2ccccc2CCc2ccccc21 (stereo unspecified) [TRIMIPRAMINE],0.08026
17,C#C[C@]1(O)CC[C@H]2[C@@H]3CCC4=CC(=O)CCC4=C3C=C[C@@]21CC [GESTRINONE],0.3099
18,OC(CCN1CCCC1)(c1ccccc1)C1CCCCC1 (stereo unspecified) [PROCYCLIDINE],0.2175
19,Cn1c(=O)c2c(ncn2CCOC(=O)C(C)(C)Oc2ccc(Cl)cc2)n(C)c1=O [THEOFIBRATE],0.04373
20,CC(C)NCC(O)COc1cccc2[nH]ccc12 (stereo unspecified) [PINDOLOL],0.3758
21,CCCCCCCCO [OCTANOL],-0.003184
22,CCN(CC)C(=O)N1CCN(C)CC1 [DIETHYLCARBAMAZINE],0.06731
23,C=CC[N+]1([C@H]2C[C@H]3[C@@H]4CC[C@H]5C[C@H](O)[C@@H](N6CCOCC6)C[C@]5(C)[C@H]4CC[C@]3(C)[C@H]2OC(C)=O)CCCC1 [ROCURONIUM],0.1086
24,COc1ccc(-n2nc(CCC(=O)N(C)O)cc2-c2ccc(Cl)cc2)cc1 [TEPOXALIN],0.1984

# A different layout for part of the listing above:
row	SMILES	Hit score
9	CCCCC(=O)N(Cc1ccc(-c2ccccc2-c2nnn[nH]2)cc1)[C@H](C(=O)O)C(C)C	0.04941
10	CCN(CC)CCNC(=O)c1cc(Br)c(N)cc1OC [BROMOPRIDE]	0.05478
11	Cc1ccc(Nc2nccc(N(C)c3ccc4c(C)n(C)nc4c3)n2)cc1S(N)(=O)=O [PAZOPANIB]	0.1082
12	C[C@@H](O)[C@H]1C(=O)N2C(C(=O)OCOC(=O)C(C)(C)C)=C(SC3CN(C4=NCCS4)C3)[C@H](C)[C@H]12 [TEBIPENEM PIVOXIL]	0.09408

# (next part)

row,SMILES,Hit score
1,CCCOC(C(=O)OC1CCN(C)CC1)(c1ccccc1)c1ccccc1.Cl,0.3138
2,CC(CCc1ccc(O)cc1)NCC(O)c1ccc(O)cc1 (stereo unspecified) [RACTOPAMINE],-0.0741
3,CCN(CCCc1ccccc1)CCCc1ccccc1 [ALVERINE],0.3515
4,CCCCC(CC)COC(=O)c1ccccc1O (stereo unspecified) [OCTISALATE],0.1384
5,CCc1cc(/C(C)=N/OCc2ccc(C3CCCCC3)c(C(F)(F)F)c2)ccc1CN1CC(C(=O)O)C1 [SIPONIMOD],-0.1293
6,NC(=O)NO [HYDROXYUREA],0.237
7,CO/N=C1\CN(c2nc3c(cc2F)c(=O)c(C(=O)O)cn3C2CC2)CC1CN (stereo unspecified) [GEMIFLOXACIN],0.07253
8,Cc1onc(-c2ccccc2Cl)c1C(=O)N[C@@H]1C(=O)N2[C@@H]1SC(C)(C)[C@@H]2C(=O)O [CLOXACILLIN],0.1888
9,CCC(=O)NC[C@@H]1C[C@H]1c1cccc2c1CCO2 [TASIMELTEON],0.1536
10,Clc1ccc(COC(Cn2ccnc2)c2ccc(Cl)cc2Cl)cc1 (stereo unspecified) [ECONAZOLE],0.2282
11,COc1cc2c(cc1OC)[C@@H]1Cc3ccc(OC)c(OC)c3CN1CC2 [TETRAHYDROPALMATINE],0.0185
12,C=C1/C(=C\C=C2/CCC[C@]3(C)[C@@H]([C@H](C)OCCC(C)(C)O)CC[C@@H]23)C[C@@H](O)C[C@@H]1O [MAXACALCITOL],-0.1282
13,CO[C@H]1C[C@H](O[C@H]2[C@H](C)O[C@@H](O[C@@H]3/C(C)=C/C[C@@H]4C[C@@H](C[C@]5(C=C[C@H](C)[C@@H](C6CCCCC6)O5)O4)OC(=O)[C@@H]4C=C(C)[C@@H](O)[C@H]5OC/C(=C\C=C\[C@@H]3C)[C@]54O)C[C@@H]2OC)O[C@@H](C)[C@@H]1O [DORAMECTIN],0.1058
14,COc1ccc2nc3cc(Cl)ccc3c(Nc3cc(CN4CCCC4)c(O)c(CN4CCCC4)c3)c2n1 [PYRONARIDINE],0.01775
15,Nc1nc(=O)c2c([nH]1)NCC(CNc1ccc(C(=O)N[C@@H](CCC(=O)O)C(=O)O)cc1)N2C=O (stereo partly specified) [LEUCOVORIN],0.1373
16,Cc1ccc(O)c([C@H](CCN(C(C)C)C(C)C)c2ccccc2)c1 [TOLTERODINE],0.1793
17,C=CCc1ccccc1OCC(O)CNC(C)C (stereo unspecified) [ALPRENOLOL],0.3773
18,NC[C@H]1CC[C@H](C(=O)O)CC1 [TRANEXAMIC ACID],0.2997
19,CC(=O)OC(C)C[N+](C)(C)C (stereo unspecified) [METHACHOLINE],0.1317
20,O=C(O)c1cc(=O)c2c(OCC(O)COc3cccc4oc(C(=O)O)cc(=O)c34)cccc2o1 [CROMOLYN],0.1049
21,C[C@H](CCC(=O)O)[C@H]1CC[C@H]2[C@@H]3[C@@H](O)C[C@@H]4C[C@H](O)CC[C@]4(C)[C@H]3CC[C@]12C [URSODIOL],0.2784
22,CC(=O)c1ccc2c(c1)N(CCCN1CCN(CCO)CC1)c1ccccc1S2 [ACETOPHENAZINE],0.1549
23,O=C1NC(c2ccccc2)(c2ccccc2)C(=O)N1COP(=O)(O)O [FOSPHENYTOIN],-0.01075
